This is an account of results in patent US20180320217A1, “METHODS FOR SAMPLING AND MEASURING ORAL LAVAGE PROTEINS” (The Procter & Gamble Company, priority 2017, published 2018).

First the molecules themselves.
B1: Pleiotrophin (protein, UniProt P21246 33-168, looked up)
Pleiotrophin: GKKEKPEKKVKKSDCGEWQWSVCVPTSGDCGLGTREGTRTGAECKQTMKTQRCKIPCNWKKQFGAECKYQFQAWGECDLNTALKTRTGSLKRALHNAECQKTVTISKPCGKLTKPKPQAESKKKKKEGKKQEKMLD
B2: Nucleoside diphosphate kinase B (protein, UniProt P22392 1-152, looked up)
Nucleoside diphosphate kinase …: MANLERTFIAIKPDGVQRGLVGEIIKRFEQKGFRLVAMKFLRASEEHLKQHYIDLKDRPFFPGLVKYMNSGPVVAMVWEGLNVVKTGRVMLGETNPADSKPGTIRGDFCIQVGRNIIHGSDSVKSAEKEISLWFKPEELVDYKSCAHDWVYE
B3: Pyridoxal kinase (protein, UniProt O00764 1-312, looked up)
Pyridoxal kinase: MEEECRVLSIQSHVIRGYVGNRAATFPLQVLGFEIDAVNSVQFSNHTGYAHWKGQVLNSDELQELYEGLRLNNMNKYDYVLTGYTRDKSFLAMVVDIVQELKQQNPRLVYVCDPVLGDKWDGEGSMYVPEDLLPVYKEKVVPLADIITPNQFEAELLSGRKIHSQEEALRVMDMLHSMGPDTVVITSSDLPSPQGSNYLIVLGSQRRRNPAGSVVMERIRMDIRKVDAVFVGTGDLFAAMLLAWTHKHPNNLKVACEKTVSTLHHVLQRTIQCAKAQAGEGVRPSPMQLELRMVQSKRDIEDPEIVVQATVL
B4: Rab GDP dissociation inhibitor beta (protein, UniProt P50395 1-445, looked up)
Rab GDP dissociation …: MNEEYDVIVLGTGLTECILSGIMSVNGKKVLHMDRNPYYGGESASITPLEDLYKRFKIPGSPPESMGRGRDWNVDLIPKFLMANGQLVKMLLYTEVTRYLDFKVTEGSFVYKGGKIYKVPSTEAEALASSLMGLFEKRRFRKFLVYVANFDEKDPRTFEGIDPKKTTMRDVYKKFDLGQDVIDFTGHALALYRTDDYLDQPCYETINRIKLYSESLARYGKSPYLYPLYGLGELPQGFARLSAIYGGTYMLNKPIEEIIVQNGKVIGVKSEGEIARCKQLICDPSYVKDRVEKVGQVIRVICILSHPIKNTNDANSCQIIIPQNQVNRKSDIYVCMISFAHNVAAQGKYIAIVSTTVETKEPEKEIRPALELLEPIEQKFVSISDLLVPKDLGTESQIFISRTYDATTHFETTCDDIKNIYKRMTGSEFDFEEMKRKKNDIYGED
B5: Repulsive guidance molecule A (protein, UniProt Q96B86 169-424, looked up)
Repulsive guidance molecule A: PHLRTFTDRFQTCKVQGAWPLIDNNYLNVQVTNTPVLPGSAATATSKLTIIFKNFQECVDQKVYQAEMDELPAAFVDGSKNGGDKHGANSLKITEKVSGQHVEIQAKYIGTTIVVRQVGRYLTFAVRMPEEVVNAVEDWDSQGLYLCLRGCPLNQQIDFQAFHTNAEGTGARRLAAASPAPTAPETFPYETAVAKCKEKLPVEDLYYQACVFDLLTTGDVNFTLAAYYALEDVKMLHSNKDKLHLYERTRDLPGRA
B6: Alpha-2-HS-glycoprotein (protein, UniProt P02765 19-300; P02765 341-367, looked up)
Alpha-2-HS-glycoprotein chain … 1: APHGPGLIYRQPNCDDPETEEAALVAIDYINQNLPWGYKHTLNQIDEVKVWPQQPSGELFEIEIDTLETTCHVLDPTPVARCSVRQLKEHAVEGDCDFQLLKLDGKFSVVYAKCDSSPDSAEDVRKVCQDCPLLAPLNDTRVVHAAKAALAAFNAQNNGSNFQLEEISRAQLVPLPPSTYVEFTVSGTDCVAKEATEAAKCNLLAEKQYGFCKATLSEKLGGAEVAVTCMVFQTQPVSSQPQPEGANEAVPTPVVDPDAPPSPPLGAPGLPPAGSPPDSHVL
Alpha-2-HS-glycoprotein chain … 2: TVVQPSVGAAAGPVVPPCPGRIRHFKV
B7: Platelet-activating factor acetylhydrolase IB subunit beta (protein, UniProt P68402 2-229, looked up)
Platelet-activating factor …: SQGDSNPAAIPHAAEDIQGDDRWMSQHNRFVLDCKDKEPDVLFVGDSMVQLMQQYEIWRELFSPLHALNFGIGGDTTRHVLWRLKNGELENIKPKVIVVWVGTNNHENTAEEVAGGIEAIVQLINTRQPQAKIIVLGLLPRGEKPNPLRQKNAKVNQLLKVSLPKLANVQLLDTDGGFVHSDGAISCHDMFDFLHLTGGGYAKICKPLHELIMQLLEETPEEKQTTIA
B8: Peroxiredoxin-6 (protein, UniProt P30041 2-224, looked up)
Peroxiredoxin-6: PGGLLLGDVAPNFEANTTVGRIRFHDFLGDSWGILFSHPRDFTPVCTTELGRAAKLAPEFAKRNVKLIALSIDSVEDHLAWSKDINAYNCEEPTEKLPFPIIDDRNRELAILLGMLDPAEKDEKGMPVTARVVFVFGPDKKLKLSILYPATTGRNFDEILRVVISLQLTAEKRVATPVDWKDGDSVMVLPTIPEEEAKKLFPKGVFTKELPSGKKYLRYTPQP
B9: Phosphoglycerate mutase 1 (protein, UniProt P18669 2-254, looked up)
Phosphoglycerate mutase 1: AAYKLVLIRHGESAWNLENRFSGWYDADLSPAGHEEAKRGGQALRDAGYEFDICFTSVQKRAIRTLWTVLDAIDQMWLPVVRTWRLNERHYGGLTGLNKAETAAKHGEAQVKIWRRSYDVPPPPMEPDHPFYSNISKDRRYADLTEDQLPSCESLKDTIARALPFWNEEIVPQIKEGKRVLIAAHGNSLRGIVKHLEGLSEEAIMELNLPTGIPIVYELDKNLKPIKPMQFLGDEETVRKAMEAVAAQGKAKK
B10: Osteomodulin (protein, UniProt Q99983 21-421, looked up)
Osteomodulin: QYETYQWDEDYDQEPDDDYQTGFPFRQNVDYGVPFHQYTLGCVSECFCPTNFPSSMYCDNRKLKTIPNIPMHIQQLYLQFNEIEAVTANSFINATHLKEINLSHNKIKSQKIDYGVFAKLPNLLQLHLEHNNLEEFPFPLPKSLERLLLGYNEISKLQTNAMDGLVNLTMLDLCYNYLHDSLLKDKIFAKMEKLMQLNLCSNRLESMPPGLPSSLMYLSLENNSISSIPEKYFDKLPKLHTLRMSHNKLQDIPYNIFNLPNIVELSVGHNKLKQAFYIPRNLEHLYLQNNEIEKMNLTVMCPSIDPLHYHHLTYIRVDQNKLKEPISSYIFFCFPHIHTIYYGEQRSTNGQTIQLKTQVFRRFPDDDDESEDHDDPDNAHESPEQEGAEGHFDLHYYENQE
B11: Peroxiredoxin-1 (protein, UniProt Q06830 2-199, looked up)
Peroxiredoxin-1: SSGNAKIGHPAPNFKATAVMPDGQFKDISLSDYKGKYVVFFFYPLDFTFVCPTEIIAFSDRAEEFKKLNCQVIGASVDSHFCHLAWVNTPKKQGGLGPMNIPLVSDPKRTIAQDYGVLKADEGISFRGLFIIDDKGILRQITVNDLPVGRSVDETLRLVQAFQFTDKHGEVCPAGWKPGSDTIKPDVQKSKEYFSKQK

For one data set, the system named is proteins in oral lavage. Description: Abundance of proteins in human oral lavage (SomaLogic), TABLE 1. The class given is in vivo. The note with it: abundance in oral lavage; high bleeders (gingivitis), baseline.
Regarding B1, the “Means (Original Scale) High bleeder BL” value was found to be 20915.
Turning to B2, the “Means (Original Scale) High bleeder BL” value is recorded as 1205.
As for B3, the “Means (Original Scale) High bleeder BL” value came out at 2457.
As to B4, the “Means (Original Scale) High bleeder BL” value is reported as 173349.
Regarding B5, the “Means (Original Scale) High bleeder BL” value is on record as 10483.
For the molecule B6, the “Means (Original Scale) High bleeder BL” value turned out to be 23244.
For the molecule B7, the “Means (Original Scale) High bleeder BL” value was 6029.
For the molecule B8, the “Means (Original Scale) High bleeder BL” value came to 22914.
On the same count and under the same terms, the result for B9 reads 52081.
Regarding B10, the “Means (Original Scale) High bleeder BL” value came to 2109.
For B11, the “Means (Original Scale) High bleeder BL” value stood at 62705.

Staying with this data set, now noted: abundance in oral lavage; high bleeders, week 4 of investigative products.
For B1, the “Means (Original Scale) High bleeder W4” value worked out at 10949.
Still for that read-out and setting: the result for B2 reads 913; that for B3, 1778.
The same measure, in the same setting: the value for B4 was 149926.
The same measure, in the same setting: the value for B5 was 5917; that for B6 was 12828.
B8: the “Means (Original Scale) High bleeder W4” value is 15898.
On to B9, for which the “Means (Original Scale) High bleeder W4” value is reported as 19944.
Consider B10, for which the “Means (Original Scale) High bleeder W4” value came to 736.
Regarding B11, the “Means (Original Scale) High bleeder W4” value worked out at 33782.

Staying with this data set, now noted: abundance in oral lavage; low bleeders (healthy), baseline.
With B1, the “Means (Original Scale) Low bleeder BL” value is on record as 9417.
Still for that read-out and setting: the result for B2 reads 342.
For the molecule B3, the “Means (Original Scale) Low bleeder BL” value was 281.
As for B4, the “Means (Original Scale) Low bleeder BL” value worked out at 49425.
B5: the “Means (Original Scale) Low bleeder BL” value is 2620.
In the case of B6, the “Means (Original Scale) Low bleeder BL” value was determined as 3367.
Consider B7, for which the “Means (Original Scale) Low bleeder BL” value is reported as 1218.
For B8, the “Means (Original Scale) Low bleeder BL” value is given as 9404.
Still for that read-out and setting: the result for B9 reads 7725.
Still for that read-out and setting: the value for B10 was 301.
In the case of B11, the “Means (Original Scale) Low bleeder BL” value was 30663.

Still in this data set, the particulars now being: in vivo, po.
With B7, the “Means (Original Scale) High bleeder W4” value is reported as 3019.

Still in this data set, the particulars now being: oral lavage, high bleeders, week 4 of treatment vs baseline.
B1: the “Fold Change High bleeder W4 vs High bleeder BL” value (from here on “Fold Change High bleeder W4”) is given as 0.58.
With B3, the “Fold Change High bleeder W4” value is reported as 0.54.
On to B4, for which the “Fold Change High bleeder W4” value amounted to 0.90.
The same measure, in the same setting: the value for B5 was 0.62; that for B7 was 0.55.
In the case of B8, the “Fold Change High bleeder W4” value is listed as 0.64.
In the case of B9, the “Fold Change High bleeder W4” value was 0.17.
On to B11, for which the “Fold Change High bleeder W4” value worked out at 0.53.

The same data set, now with this note: oral lavage, high vs low bleeders at baseline.
For the molecule B1, the “Fold Change High bleeder BL vs Low bleeder BL” value (from here on “Fold Change High bleeder BL”) came to 2.15.
Consider B3, for which the “Fold Change High bleeder BL” value amounted to 12.00.
B4: the “Fold Change High bleeder BL” value is reported as 6.49.
With B5, the “Fold Change High bleeder BL” value is listed as 3.69.
Consider B7, for which the “Fold Change High bleeder BL” value amounted to 4.50.
In the case of B8, the “Fold Change High bleeder BL” value was 2.62.
With B9, the “Fold Change High bleeder BL” value was 25.56.
The same measure, in the same setting: the value for B11 was 2.55.

Staying with this data set, now noted: oral lavage; high bleeders vs low bleeders at baseline.
With B2, the “Fold Change High bleeder BL” value is recorded as 6.98.
Still for that read-out and setting: the result for B6 reads 6.01.
B10: the “Fold Change High bleeder BL” value is reported as 4.01.

The data set is the same for the next values; noted with them: oral lavage; week 4 of investigative products vs baseline, high bleeders.
Consider B2, for which the “Fold Change High bleeder W4” value was 0.76.
Turning to B6, the “Fold Change High bleeder W4” value came out at 0.66.
In the case of B10, the “Fold Change High bleeder W4” value was 0.51.
